This assay has as its target SOX8 (human (endogenous in ligament fibroblasts from patients)) (UniProt P57073). As to the kind of experiment: co-IP; endogenous proteins in ligament fibroblast lysates; SOX8, TRIM25 or IgG antibodies 1 h at room temperature, then Protein A + G magnetic beads overnight at 4°C; Western blot. Background: In western blotting, separated proteins are transferred to a membrane and probed.

Protein sequences, listed by entry. Tags and fused reporters are not part of them.
UniProt P57073: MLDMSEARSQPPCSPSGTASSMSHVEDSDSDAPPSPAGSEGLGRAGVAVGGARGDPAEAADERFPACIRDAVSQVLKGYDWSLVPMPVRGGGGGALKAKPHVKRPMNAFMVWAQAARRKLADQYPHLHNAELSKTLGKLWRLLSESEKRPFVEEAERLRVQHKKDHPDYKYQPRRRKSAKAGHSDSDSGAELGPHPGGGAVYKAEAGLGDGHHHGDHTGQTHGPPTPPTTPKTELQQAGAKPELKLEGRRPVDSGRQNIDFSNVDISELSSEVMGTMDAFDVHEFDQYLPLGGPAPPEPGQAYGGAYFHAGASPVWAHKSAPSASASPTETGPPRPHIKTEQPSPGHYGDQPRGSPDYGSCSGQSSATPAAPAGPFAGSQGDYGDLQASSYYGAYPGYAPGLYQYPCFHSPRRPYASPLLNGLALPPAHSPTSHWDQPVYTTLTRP
UniProt Q14258: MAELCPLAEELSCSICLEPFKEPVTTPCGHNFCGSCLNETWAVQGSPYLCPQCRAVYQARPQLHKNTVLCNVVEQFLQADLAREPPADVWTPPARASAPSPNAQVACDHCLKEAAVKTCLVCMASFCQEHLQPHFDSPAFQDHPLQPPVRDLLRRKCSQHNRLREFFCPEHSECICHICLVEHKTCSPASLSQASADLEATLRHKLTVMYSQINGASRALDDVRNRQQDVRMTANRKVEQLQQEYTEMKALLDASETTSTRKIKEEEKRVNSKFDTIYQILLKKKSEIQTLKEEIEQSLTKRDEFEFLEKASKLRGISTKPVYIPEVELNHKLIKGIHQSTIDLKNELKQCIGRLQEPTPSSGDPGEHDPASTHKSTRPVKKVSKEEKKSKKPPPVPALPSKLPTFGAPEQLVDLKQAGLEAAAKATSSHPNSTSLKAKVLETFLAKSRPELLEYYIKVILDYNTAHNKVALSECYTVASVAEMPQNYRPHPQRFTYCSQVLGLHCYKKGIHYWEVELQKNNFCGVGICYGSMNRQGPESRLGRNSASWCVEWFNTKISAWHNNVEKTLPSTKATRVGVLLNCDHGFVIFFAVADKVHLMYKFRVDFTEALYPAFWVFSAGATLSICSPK

Results are given in words; binding and its absence hold for the method and conditions named. In cells and extracts the contact can be indirect. Some results given as binding are weak or reduced against the parent protein; the word gives no strength.

In the case of “TRIM25 (from UniProt Q14258 1-630) (enzyme)”, the binding result is recorded as “binds”.

Values taken from article PMC12412890.
